Results from publication PMC10669615.
Results are given in words; binding and its absence hold for the method and conditions named. Binding seen in cells or lysates may run through a third protein. Some entries that bind do so weakly or less than the wild type. Where a sequence is shown, tags or fusion partners need not be part of it.

Sequences of proteins named here, by UniProt entry; tags and fusion partners are left off.
UniProt P00520: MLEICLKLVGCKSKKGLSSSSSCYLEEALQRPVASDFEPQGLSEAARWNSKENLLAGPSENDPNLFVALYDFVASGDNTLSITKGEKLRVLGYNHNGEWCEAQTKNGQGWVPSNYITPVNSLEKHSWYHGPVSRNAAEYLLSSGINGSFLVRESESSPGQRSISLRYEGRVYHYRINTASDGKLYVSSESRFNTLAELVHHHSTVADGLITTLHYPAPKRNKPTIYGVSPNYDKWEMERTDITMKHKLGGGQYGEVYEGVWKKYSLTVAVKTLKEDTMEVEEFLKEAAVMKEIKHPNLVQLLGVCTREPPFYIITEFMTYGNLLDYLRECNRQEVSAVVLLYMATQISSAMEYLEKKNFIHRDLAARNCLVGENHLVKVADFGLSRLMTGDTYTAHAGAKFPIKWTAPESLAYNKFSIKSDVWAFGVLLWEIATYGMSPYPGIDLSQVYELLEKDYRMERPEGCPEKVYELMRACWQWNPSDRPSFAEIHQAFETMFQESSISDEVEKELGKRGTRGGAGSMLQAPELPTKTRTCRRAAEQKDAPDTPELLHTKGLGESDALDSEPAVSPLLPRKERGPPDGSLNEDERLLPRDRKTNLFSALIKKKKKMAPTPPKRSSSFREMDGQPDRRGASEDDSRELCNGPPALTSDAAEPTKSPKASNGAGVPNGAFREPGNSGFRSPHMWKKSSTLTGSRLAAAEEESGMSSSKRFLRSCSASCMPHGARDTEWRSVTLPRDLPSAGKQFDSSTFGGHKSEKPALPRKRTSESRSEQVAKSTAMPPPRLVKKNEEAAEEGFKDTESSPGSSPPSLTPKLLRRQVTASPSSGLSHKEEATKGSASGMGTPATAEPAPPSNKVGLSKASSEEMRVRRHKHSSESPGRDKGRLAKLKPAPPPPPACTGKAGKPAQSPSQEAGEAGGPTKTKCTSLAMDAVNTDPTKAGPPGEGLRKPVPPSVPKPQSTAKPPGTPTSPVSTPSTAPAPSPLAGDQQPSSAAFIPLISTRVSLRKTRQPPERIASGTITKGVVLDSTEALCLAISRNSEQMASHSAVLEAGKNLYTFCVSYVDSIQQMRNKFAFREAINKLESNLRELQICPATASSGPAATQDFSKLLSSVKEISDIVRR

T1: mitofusin 2 (endogenous) (mouse (endogenous in MEF)) (UniProt Q80U63)
T1 sequence: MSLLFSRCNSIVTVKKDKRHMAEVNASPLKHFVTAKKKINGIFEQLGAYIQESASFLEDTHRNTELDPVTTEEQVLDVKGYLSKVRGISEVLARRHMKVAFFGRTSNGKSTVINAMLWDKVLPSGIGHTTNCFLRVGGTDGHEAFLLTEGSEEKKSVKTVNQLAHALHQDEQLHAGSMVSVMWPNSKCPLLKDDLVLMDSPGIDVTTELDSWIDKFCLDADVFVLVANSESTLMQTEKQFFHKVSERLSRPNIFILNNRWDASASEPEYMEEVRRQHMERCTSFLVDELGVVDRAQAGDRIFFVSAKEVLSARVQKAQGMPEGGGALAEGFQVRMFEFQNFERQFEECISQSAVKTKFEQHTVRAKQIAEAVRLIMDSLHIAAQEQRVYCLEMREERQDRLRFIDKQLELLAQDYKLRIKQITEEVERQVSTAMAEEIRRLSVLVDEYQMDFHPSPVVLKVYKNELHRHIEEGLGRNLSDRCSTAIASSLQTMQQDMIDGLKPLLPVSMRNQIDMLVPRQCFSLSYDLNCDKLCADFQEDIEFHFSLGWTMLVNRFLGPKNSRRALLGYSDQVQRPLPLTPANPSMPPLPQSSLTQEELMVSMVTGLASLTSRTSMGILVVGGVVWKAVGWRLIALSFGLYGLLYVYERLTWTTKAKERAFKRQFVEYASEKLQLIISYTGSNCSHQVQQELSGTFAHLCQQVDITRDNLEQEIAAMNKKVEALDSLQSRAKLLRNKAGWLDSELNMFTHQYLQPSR

T2: FLAG-tagged WT MFN2 (UniProt Q80U63)
T2 sequence: T1 sequence

B1: mitofusin 2 (endogenous) (protein, UniProt Q80U63 1-757)
chain: T1 sequence

Tests used:
[1] = target: T1, mitofusin 2 (endogenous) (mouse (endogenous in MEF)); test: co-IP; endogenous proteins from MEF cells treated with tunicamycin with or without imatinib; non-denaturing lysis buffer (20 mM Tris, 137 mM NaCl, 1 mM EDTA, 1% NP-40); immunoprecipitation with anti-c-Abl or with anti-MFN2, complexes isolated with protein G Sepharose; Western blot for the other protein
[2] = target: T2, FLAG-tagged WT MFN2; test: co-IP; MFN1/2 DKO MEF cells stably expressing FLAG-MFN2, treated with tunicamycin with or without imatinib; non-denaturing lysis buffer; immunoprecipitation with anti-FLAG agarose beads; Western blot for endogenous c-Abl
[3] = target: c-Abl tyrosine kinase (endogenous) (mouse (endogenous in MEF)) (UniProt P00520); test: co-IP; endogenous proteins from MEF cells treated with tunicamycin with or without imatinib; non-denaturing lysis buffer (20 mM Tris, 137 mM NaCl, 1 mM EDTA, 1% NP-40); immunoprecipitation with anti-c-Abl or with anti-MFN2, complexes isolated with protein G Sepharose; Western blot for the other protein

Row | Molecule | binding [1] | binding [2] | binding [3]
1 | c-Abl tyrosine kinase (endogenous) (from UniProt P00520 1-1123) (enzyme) | binds | binds | 
2 | B1 |  |  | binds
